PubChem BioAssay AID1259331, Drosophila RNAi Screening Center, 2017
Purpose: 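Fly transmembrane-protein genes that affect zinc toxicity in cultured cells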 (primary screen). Cell system: Drosophila S2R+ cells. Reagents: long dsRNA against Drosophila genes. Duration: 5 days (4 days knock-down, then 1 day zinc). Treatment: zinc chloride at 15 mM final level for 1 day. Read-out: 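Luminescent ATP assay standing in for viability; Z score is the mean over three replicate plates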. Scale: mean Z score: higher = more ATP than other wells, better survival under zinc; ATP luminescence: higher = more ATP, more viable cells. Hit rule: 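a reagent is called a hit when its Z score is above 1.5 or below -1.5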. Calls: active = hit, ATP up or down; inactive = not a hit.
The whole screen tested about 3,100 reagents; shown is a part drawn at random. 126 of them (4.1%) were called active. 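Calls are per reagent; zinc was so toxic that few knock-downs lowered ATP further, so most hits raise ATP.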 The raw values are shown without normalisation. Entries without a mark were called inactive. A plus sign joins genes that one reagent is predicted to hit. Reagent sequences are not shown. Not stated in the record: the amount of reagent.

mean Z score	ATP luminescence, replicate 1	ATP luminescence, replicate 2	gene	amplicon
0.301	81402	66892	Cad74A (GeneID 39936)	DRSC10636
-0.0711	44068	50326	stas (GeneID 32737)	DRSC20104
-0.313	70836	54716	Snmp2 (GeneID 38868)	DRSC10228
-0.295	39041	41976	Snmp2 (GeneID 38868)	DRSC10843
1.5	66463	60186	Mgat2 (GeneID 43563)	DRSC16347
-1.22	45388	39612	Mgat2 (GeneID 43563)	DRSC29105
0.252	52864	67132	Spp (GeneID 33227)	DRSC00328
0.232	47840	47120	CadN2 (GeneID 35071)	DRSC03062
-0.3	69773	55590	CadN2 (GeneID 35071)	DRSC03063
-0.287	69300	55710	VhaM9.7-a (GeneID 38521)	DRSC08289
0.582	69070	71694	VhaM9.7-a (GeneID 38521)	DRSC28340
-0.231	38816	53481	CG6974 (GeneID 41815)	DRSC16160
0.0984	43022	56122	sit (GeneID 42658)	DRSC15760
0.139	60152	62638	sit (GeneID 42658)	DRSC25250
-0.0189	50772	43059	rut (GeneID 32406)	DRSC22976
-0.07	64199	65593	pHCl-1 (GeneID 39730)	DRSC09401
-0.109	42422	43197	pHCl-1 (GeneID 39730)	DRSC09991
-0.585	62947	59414	pHCl-1 (GeneID 39730)	DRSC10589
-0.0448	76324	60586	Gr66a (GeneID 38935)	DRSC10783
-0.159	56962	55042	Gr66a (GeneID 38935)	DRSC39878
-0.0633	42508	43519	CG31717 (GeneID 318911)	DRSC01121
-0.394	28322	30062	Rh50 (GeneID 38589)	DRSC08692
0.33	55865	66199	CG44153 (GeneID 34341)	DRSC02228
0.259	52047	38839	CG44153 (GeneID 34341)	DRSC02902
0.135	75210	62278	CG44153 (GeneID 34341)	DRSC02903
-0.355	45772	43262	Gr28a (GeneID 117348)	DRSC02290
-0.655	35376	45916	CG6231 (GeneID 42339)	DRSC15997
0.21	72279	77234	ItgaPS4 (GeneID 36693)	DRSC06630
-0.0564	73186	58577	MstProx + Mst84Da	DRSC12597
-0.536	29873	25828	Prip (GeneID 36237)	DRSC07044
0.625	71453	64319	Prip (GeneID 36237)	DRSC26459
-0.304	51629	51938	CG1161 (GeneID 40638)	DRSC24956
2.14 (active)	83506	89415	CG3702 (GeneID 33628)	DRSC00628
-0.119	56808	60358	CG3702 (GeneID 33628)	DRSC39885
1.1	59174	72071	Nup58 (GeneID 42342)	DRSC16235
2.13 (active)	91945	87697	Nup58 (GeneID 42342)	DRSC27863
-0.517	45570	41188	pes (GeneID 34087)	DRSC03033
-0.379	52463	55539	pes (GeneID 34087)	DRSC25954
0.0174	77388	64778	mthl7 (GeneID 38910)	DRSC10852
0.286	57082	65297	mthl7 (GeneID 38910)	DRSC39583
-0.0512	30816	32564	CG5535 (GeneID 39990)	DRSC10514
0.395	69258	65679	CG5535 (GeneID 39990)	DRSC29215
0.144	51938	41273	Ror (GeneID 34367)	DRSC03414
-0.282	44377	44068	Ror (GeneID 34367)	DRSC36669
-0.107	46074	45440	Ror (GeneID 34367)	DRSC36670
-0.16	73752	55230	rt (GeneID 39297)	DRSC11391
2.06 (active)	76033	78586	rt (GeneID 39297)	DRSC39519
-0.124	40340	54184	VhaPPA1-2 (GeneID 41806)	DRSC16176
-0.258	48474	58163	VhaPPA1-2 (GeneID 41806)	DRSC25591

13 successive reagents already listed, quoted:
mean Z score	ATP luminescence, replicate 1	ATP luminescence, replicate 2	gene	amplicon
1.5	66463	60186	Mgat2 (GeneID 43563)	DRSC16347
-1.22	45388	39612	Mgat2 (GeneID 43563)	DRSC29105
0.252	52864	67132	Spp (GeneID 33227)	DRSC00328
0.232	47840	47120	CadN2 (GeneID 35071)	DRSC03062
-0.3	69773	55590	CadN2 (GeneID 35071)	DRSC03063
-0.287	69300	55710	VhaM9.7-a (GeneID 38521)	DRSC08289
0.582	69070	71694	VhaM9.7-a (GeneID 38521)	DRSC28340
-0.231	38816	53481	CG6974 (GeneID 41815)	DRSC16160
0.0984	43022	56122	sit (GeneID 42658)	DRSC15760
0.139	60152	62638	sit (GeneID 42658)	DRSC25250
-0.0189	50772	43059	rut (GeneID 32406)	DRSC22976
-0.07	64199	65593	pHCl-1 (GeneID 39730)	DRSC09401
-0.109	42422	43197	pHCl-1 (GeneID 39730)	DRSC09991

Further reagents follow:
mean Z score	ATP luminescence, replicate 1	ATP luminescence, replicate 2	gene	amplicon
-0.26	74421	58197	nan (GeneID 39571)	DRSC10551
1.26	86521	78170	nan (GeneID 39571)	DRSC39690
0.318	38839	60992	TyrR (GeneID 42136)	DRSC16242
-0.142	57254	58334	TyrR (GeneID 42136)	DRSC39601
-0.295	45165	38102	CG18635 (GeneID 37031)	DRSC06780
-0.393	51149	60718	CG18635 (GeneID 37031)	DRSC25971
-0.321	27439	30199	Rh7 (GeneID 39389)	DRSC10529
2.08 (active)	1.06e5	80647	Rh7 (GeneID 39389)	DRSC28331
0.446	60083	43914	Gr58c (GeneID 37501)	DRSC04136
-0.525	65708	50841	plh (GeneID 40615)	DRSC12294
-0.0172	45920	44240	CG14195 (GeneID 32911)	DRSC19550
1.3	78348	77028	CG14195 (GeneID 32911)	DRSC39887
-0.733	39285	40322	CG33639 (GeneID 32803)	DRSC22820
-0.0172	53710	56053	CG33639 (GeneID 32803)	DRSC23778
-0.411	26239	29702	CG11353 (GeneID 38560)	DRSC08182
0.808	73272	70184	CG11353 (GeneID 38560)	DRSC39681
0.48	62433	63582	PGAP2 (GeneID 33258)	DRSC00632
0.165	64439	63427	PGAP2 (GeneID 33258)	DRSC28496
-0.179	51545	55985	Fs(2)Ket (GeneID 35336)	DRSC03328
-1.22	39525	38445	Fs(2)Ket (GeneID 35336)	DRSC23439
-0.521	63770	53721	CG4101 (GeneID 39857)	DRSC10400
-0.114	46588	43370	aralar1 (GeneID 43616)	DRSC16901
-0.00464	57382	65333	aralar1 (GeneID 43616)	DRSC29693
3.22 (active)	95314	1.09e5	IA-2 (GeneID 33277)	DRSC00652
-0.0787	55007	52898	IA-2 (GeneID 33277)	DRSC24588
0.178	50052	47025	IA-2 (GeneID 33277)	DRSC36830
1.86 (active)	63633	75501	IA-2 (GeneID 33277)	DRSC36831
-0.918	34971	36405	140up (GeneID 41720)	DRSC12634
-0.133	60135	58540	140up (GeneID 41720)	DRSC28711
0.262	44171	47411	Shab (GeneID 38352)	DRSC08013
-0.529	25948	30233	Shab (GeneID 38352)	DRSC08699
0.115	46834	63136	CG2938 (GeneID 31347)	DRSC27919
-0.0793	75621	70407	CR33013 (GeneID 14462581)	DRSC06286
-0.204	58265	58231	CR33013 (GeneID 14462581)	DRSC25681
-0.504	51989	46040	CG7806 (GeneID 34140)	DRSC03071
-0.0577	53310	57631	CG7806 (GeneID 34140)	DRSC39811
-0.614	42354	31404	Gr22e (GeneID 117498)	DRSC20912
-0.128	38222	57048	CG4073 (GeneID 41284)	DRSC15542
